Values quoted from earlier work as cited in patent US11925450B2, “Methods and apparatus for guiding medical care based on detected gastric function” (Gravitas Medical, Inc., priority 2011, dated 2024).
Where two headings read alike, the source gives them in different places. At least one structure is not confirmed: it was looked up by name or label, or the drawing left a doubt.

Columns and labels:
gastric juice pH [1] = details: intravenous, cited from earlier work
gastric pH = details: continuous infusion, 80 mg bolus then 8 mg/hr; cited from earlier work
gastric acid secretion = details: cited from earlier work
gastric acid output = details: cited from earlier work
gastric acid production = details: healthy adults; basal 31 ml/h; cited from earlier work
gastric juice volume = details: basal 50-70 ml per hour; assuming adequate gastric perfusion; cited from earlier work
gastrointestinal tract = details: healthy patients; cited from earlier work
gastric juice pH [2] = details: cited from earlier work

For `COc1ccc2[nH]c([S+]([O-])Cc3ncc(C)c(OC)c3C)nc2c1` (stereo not shown) [omeprazole], the “time to gastric juice pH greater than 5” value (gastric juice pH [1]) is listed as at most 1.5 hours and the “gastric juice pH reached” value (gastric juice pH [1]; from less than 2 at baseline) is listed as “greater than 5”.

In the case of `COc1ccnc(C[S+]([O-])c2nc3ccc(OC(F)F)cc3[nH]2)c1OC` (stereo not shown) [pantoprazole], the “percentage of the time with pH >6” value (gastric pH) is given as 64%.

For `CSCC[C@H](NC(=O)[C@H](Cc1c[nH]c2ccccc12)NC(=O)CCNC(=O)OC(C)(C)C)C(=O)N[C@@H](CC(=O)O)C(=O)N[C@@H](Cc1ccccc1)C(N)=O` [pentagastrin], the “gastric acid secretory response” value (gastric acid secretion; dose of 6 mcg/kg) is listed as “robust gastric acid secretory response”, the “duration of activity / effect / action” value (gastric acid secretion; most patients) is listed as “less than 90 minutes” and the “time to robust acid secretory response” value (gastric acid secretion; subcutaneous) is listed as “less than 1 hour”. For the same molecule, the “Acid Production in 30 Minutes, mean” value (gastric acid output; 0.2 mcg/kg) was “mean 7.8 mEq”, the “Acid Production in 30 Minutes, mean” value (gastric acid output; 2 mcg/kg) was “mean 13.6 mEq” and the “stimulated gastric acid production” value (gastric acid production) was “over 120 ml/h”. The “gastric juice volume after stimulation” value (gastric juice volume) was “several hundred”, the “effect on blood flow in the gastric mucosa” value (gastrointestinal tract) was “transiently increases blood flow in the gastric mucosa” and the “effect on motor activity of the colon and rectum” value (gastrointestinal tract) was “increases motor activity of the colon and rectum”. For the same molecule, the “effect on smooth muscle of the LES” value (gastrointestinal tract) was “causes contraction of smooth muscle of the LES”.

For `CNC(=C[N+](=O)[O-])NCCSCc1ccc(CN(C)C)o1` [ranitidine], the “median time to gastric juice pH of at least 3.5” value (gastric juice pH [2]; intravenous 50 mg) is listed as 43 min, the “median time to gastric juice pH of at least 3.5” value (gastric juice pH [2]; intravenous 100 mg) is listed as 48 min and the “gastric juice pH reached” value (gastric juice pH [2]; intravenous 50 or 100 mg, from approximately 1.5) is listed as “at least 3.5”.
